Test results: PMC6464244, “The fungal ribonuclease-like effector protein CSEP0064/BEC1054 represses plant immunity and interferes with degradation of host ribosomal RNA”
No constants are given. Whether binding was seen depends on the method and setting.

Target: recombinant CSEP0064/BEC1054 (mature form, residues 22-118) (Blumeria graminis f.sp. hordei) (UniProt N1JJ94)
Assay: 1H-15N HSQC NMR spectrum; 15N,13C-labelled protein at 300 μM in 20 mM phosphate pH 7.0, 150 mM NaCl, 10% 2H2O, 308 K, 600 MHz; both purified

B1: recombinant CSEP0064/BEC1054 (mature form, residues 22-118) (protein, UniProt N1JJ94 22-118)
chain: AAYWDCDGTEIPERNVRAAVVLAFNYRKESFHGYPATFIIGSTFSGVGEVRQFPVEDSDANWQGGAVKYYILTNKRGSYLEVFSSVGSGNKCTFVEG
- binding: no binding (tested: 300 μM)
